{"source": "patent US20200000934", "system": "VEGF", "experiment": "binding assay", "conditions": "cap strand attached to NMOF (DBCO-azide); in vivo eye injection, 5 uL of 10 uM VEGF; Rhodamine 6G release rises in first 15 min, stable without VEGF; purified recombinant protein; label: Rhodamine 6G loaded in NMOF; variant of V7t1 anti-VEGF aptamer", "note": "Construct, isoform or probe ends are uncertain for at least one entry."}
{"sequence": "TGTGGGGGTGGACGGGCCGGGTAGA / TCTACCCGGCCC", "values": [{"measurement": "binding result", "result": "binds"}]}
